Protein sequences, listed by entry. Tags and fused reporters are not part of them. Residues count along the entry.
UniProt Q08345, residues 19-913: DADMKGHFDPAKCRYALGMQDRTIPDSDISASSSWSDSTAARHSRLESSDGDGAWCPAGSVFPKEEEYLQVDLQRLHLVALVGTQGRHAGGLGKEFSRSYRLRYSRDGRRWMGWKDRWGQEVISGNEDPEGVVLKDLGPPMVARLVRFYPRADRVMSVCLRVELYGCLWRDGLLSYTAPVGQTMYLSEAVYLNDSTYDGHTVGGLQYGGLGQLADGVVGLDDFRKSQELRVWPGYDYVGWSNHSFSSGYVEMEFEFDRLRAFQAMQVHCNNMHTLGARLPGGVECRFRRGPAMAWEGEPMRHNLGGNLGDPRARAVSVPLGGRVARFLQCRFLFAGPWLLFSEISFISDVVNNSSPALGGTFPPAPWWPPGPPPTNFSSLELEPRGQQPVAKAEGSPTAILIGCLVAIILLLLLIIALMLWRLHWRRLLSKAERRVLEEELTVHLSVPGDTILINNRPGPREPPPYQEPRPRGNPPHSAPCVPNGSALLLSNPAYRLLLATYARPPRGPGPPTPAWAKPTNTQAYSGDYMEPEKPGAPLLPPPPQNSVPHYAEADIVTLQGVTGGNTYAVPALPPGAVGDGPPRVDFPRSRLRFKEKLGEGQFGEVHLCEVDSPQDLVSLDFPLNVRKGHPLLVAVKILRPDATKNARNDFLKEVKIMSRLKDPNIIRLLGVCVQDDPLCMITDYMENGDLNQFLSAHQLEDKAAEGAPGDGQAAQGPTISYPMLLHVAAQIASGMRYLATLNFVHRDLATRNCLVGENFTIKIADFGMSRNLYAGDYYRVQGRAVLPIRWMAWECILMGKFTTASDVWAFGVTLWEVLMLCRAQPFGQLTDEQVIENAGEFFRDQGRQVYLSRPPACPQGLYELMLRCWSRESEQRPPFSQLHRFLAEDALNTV

According to paper PMC6513865:

Target: CD167a (Discoidin domain receptor 1), b isoform, overexpressed from pHAGE-V5-CD167a (human) (UniProt Q08345)
Test: affinity purification with mass spectrometry; lysate of CD167a-overexpressing T24 cells; anti-CD167a antibody with protein A/G agarose beads, 4 h at 4 °C, beads washed 4 times with RIPA buffer; IP samples analysed by mass spectrometry (iBAQ)

B1: CDC37 (protein, UniProt Q16543 1-378)
chain: MVDYSVWDHIEVSDDEDETHPNIDTASLFRWRHQARVERMEQFQKEKEELDRGCRECKRKVAECQRKLKELEVAEGGKAELERLQAEAQQLRKEERSWEQKLEEMRKKEKSMPWNVDTLSKDGFSKSMVNTKPEKTEEDSEEVREQKHKTFVEKYEKQIKHFGMLRRWDDSQKYLSDNVHLVCEETANYLVIWCIDLEVEEKCALMEQVAHQTIVMQFILELAKSLKVDPRACFRQFFTKIKTADRQYMEGFNDELEAFKERVRGRAKLRIEKAMKEYEEEERKKRLGPGGLDPVEVYESLPEELQKCFDVKDVQMLQDAISKMDPTDAKYHMQRCIDSGLWVPNSKASEAKEGEEAGPGDPLLEAVPKTGDEKDVSV
Which binding does the source give for B1 here?
The binding was “binds”.

These are yes or no findings as the source states them, for the method shown. Binding seen in cells or lysates may run through a third protein. These calls come from enrichment with a bait or labelling near it, and not all partners need be listed.
